In doi:10.1101/2022.12.29.522203:
For part of these data: A negative result means that nothing was seen under these conditions. For part of these data: At least one verdict was read from the data and is not stated in words by the source. The exact form of at least one protein or probe is not confirmed. For part of these data: Where cells or extracts were used, other partners may take part.

Columns and labels:
Test in all cases: EMSA
JUNB + BATF = settings: protein in a lysate after overexpression
[1] = test system: IRF4-WT DBD + JUNB DBD + BATF DBD
[2] = test system: IRF4-C99R DBD + JUNB DBD + BATF DBD

AGCTCTTGCCTTAGAGGTTTCGGGATGACTAATACTGTA / AGCTTACAGTATTAGTCATCCCGAAACCTCTAAGGCAAG [AICE1 (Ctla4)]
binding result (JUNB + BATF): binds

AGCTTAGTGCAGAAATGAGTCAGAGATCAAAGAAG / AGCTCTTCTTTGATCTCTGACTCATTTCTGCACTA [AICE2 (Bcl11b)]
binding result (JUNB + BATF): binds

AGTGCATACATGAGTCAGAGATC / AGGATCTCTGACTCATGTATGCA [AICE2 (Bcl11b) IRFMut short]
binding result ([1]; composite complex abolished): no binding

AGTGCATGTATGAGTCAGAGATC / AGGATCTCTGACTCATACATGCA [AICE2FLIP IRFMut short]
binding result ([1]; composite complex abolished): no binding

AGTGCATTTCTGAGTCAGAGATC / AGGATCTCTGACTCAGAAATGCA [AICE2FLIP short]
binding result [2]: binds | binding result ([1]; C99R binds exclusively): no binding
